# The other results are listed elsewhere or left out. These are further read-outs of the screen, such as a control signal, another cell line or another target. No call is given for them. Most of these compounds were active or inconclusive in the main read-out, so they are no random draw. The note in brackets gives the kind of curve behind each potency; many fits are weak.
# Assay: qHTS Assay for Lipid Storage Modulators in Drosophila S3 Cells;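 as to cell number change: cells counted by Cell Tracker Red CMTPX staining in the red channel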
# Settings: BODIPY lipid droplet fluorescence, 18-24 h; for cell number change: measured here: cell count max response, cells fed with added oleic acid
# How it was run: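 Drosophila S3 cells loaded with oleic acid (400 uM, as added) and compounds at several concentrations; lipid droplets imaged by 488-nm laser-scanning cytometry, 500–530 nm intensity and object ratio to cell channel. Percent activity normalized to 20 uM Triacsin C.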
# [1] = measured here: cell number channel AC50, cells fed with added oleic acid
# [2] = measured here: lipid fluorescence (Fed channel) AC50, cells fed with added oleic acid
SMILES,cell number change [%],AC50 [1],AC50 [2]
Cc1ccc(Nc2nc(N)c(C#N)c(CC#N)c2C#N)cc1,53.2,"6.51 µM [falling, single point]","6.51 µM [falling, single point]"
Cc1ccc(C(=O)N2CC(=O)Nc3ccc(F)cc3C2c2ccc(F)cc2)cc1[N+](=O)[O-] (configuration not stated),11.7,–,"1.46 µM [rising, partial curve, poor fit]"
NCCCNC(=O)c1cc2ccccc2[nH]1,25.5,"1.46 µM [rising, full curve, poor fit]",–
CCOC(=O)N1CCN(S(=O)(=O)c2ccc3c(c2)oc(=O)n3C)CC1,–,–,"6.51 µM [falling, single point]"
CC(C)NC(=S)Nc1ccc(Oc2ccccc2)cc1,-21.1,–,"0.00461 µM [falling, full curve, poor fit]"
COCC1CCN(C(=O)C2CCC(=O)N(CC3CCCCC3)C2)CC1 (configuration not stated),13.3,–,"4.61 µM [falling, single point]"
CCCNC(=O)COC(=O)c1n[nH]c2ccccc12,42.5,"29.1 µM [rising, single point]","23.1 µM [rising, single point]"
Cc1ccc2nc(N3CCC(C(=O)NC4CCCCC4)CC3)sc2c1,5.01,–,–
CCC1CCCCN1CCCNC(=O)c1cn(CC)c2ccc(S(=O)(=O)N3CCc4ccccc4C3)cc2c1=O (configuration not stated),–,–,"0.82 µM [rising, full curve, poor fit]"
Cc1ccccc1NC(=O)c1cnn(-c2ccccc2)c1NC(=O)c1ccco1,-0.325,–,"0.184 µM [rising, full curve, poor fit]"
CC1=NN(c2ccccc2)C(=O)C1/C=C1/NC(=S)NC1=O (configuration not stated),-26,–,"5.17 µM [falling, full curve, poor fit]"
COC(=O)CN1C(=O)N/C(=C/c2cc(Cl)c(OC)c(OC)c2)C1=O,2.15,–,"6.51 µM [falling, single point]"
COC(=O)c1cc2ccsc2n1Cc1nc(-c2ccc(Cl)cc2)oc1C,10,–,–
Cc1[nH]c2ccc(C(=O)OCC(=O)Nc3cccc(S(N)(=O)=O)c3)cc2c1C,-0.775,–,"0.651 µM [falling, full curve]"
Cc1ccccc1-c1nnc(SCc2ccccc2F)o1,10.2,–,"9.2 µM [rising, single point]"
CCN(CC)CCn1c(NS(=O)(=O)c2ccc(C)cc2)nc2ccccc21,-6.53,–,–
CCOC(=O)C1=C(C)N=C2c3ccccc3C(=O)C2C1c1ccc(Cl)cc1 (configuration not stated),-61.6,"20.6 µM [falling, partial curve]","20.6 µM [falling, partial curve]"
O=C(NCCCN1CCc2ccccc2C1)Nc1ccc(Cl)cc1,-4.04,–,"5.8 µM [falling, single point]"
Cc1cnc(C(=O)Nc2ccc(S(=O)(=O)NCC(C)C)cc2)cn1,-18.3,–,"0.651 µM [falling, full curve]"
Cc1ccc(C(=O)OCC(=O)c2cc(C)n(CC3CCCO3)c2C)cc1 (configuration not stated),4.96,"6.51 µM [falling, single point]","6.51 µM [falling, single point]"

SMILES,cell number change [%],AC50 [1],AC50 [2]
CC(C)n1nc(C(=O)Nc2ccc3c(c2)OCO3)c2ccccc2c1=O,-4.82,–,"0.103 µM [rising, full curve, poor fit]"
Cc1[nH]c2ccccc2c1Cc1n[nH]c(=S)o1,-12.2,–,"0.731 µM [rising, single point]"
CCCCCn1c(N2CCN(Cc3ccccc3)CC2)nc2c1c(=O)[nH]c(=O)n2C,–,–,"0.651 µM [rising, single point]"
Cc1ccc(CSc2ccc(S(=O)(=O)N3CCCC3)cn2)cc1,-0.519,–,–
COc1ccc(S(=O)(=O)NC(C)C(=O)NCc2ccncc2)cc1C (configuration not stated),18.5,–,"0.092 µM [rising, full curve, poor fit]"
Cc1ccc2c(c1)c1c(n2CC(O)CN2C(=O)CNC2=O)C(=O)CCC1 (configuration not stated),-7.8,–,–
COc1ccc(C(=O)Cn2c(Br)nc3c2c(=O)n(C)c(=O)n3C)cc1OC,-16.1,"0.58 µM [falling, full curve]",–
COc1cccc([C@@H]2CC=C(C(=O)O)[C@H](c3ccc(F)cc3)N2S(=O)(=O)c2ccc(C)cc2)c1,25.3,–,"18.4 µM [rising, single point]"
Cn1c(SCC(=O)N2CCN(c3ccccc3)CC2)nnc1-c1c[nH]c2ccccc12,30,"3.66 µM [rising, single point]","25.9 µM [rising, single point]"
COc1ccc(S(=O)(=O)N2CCOCC2)cc1C(=O)N(C)CCOc1ccc(Cl)cc1,6.76,–,"0.651 µM [rising, single point]"
O=C(c1noc2c1CCCC2)N1CCN(Cc2ccccc2)CC1,17.1,–,"20.6 µM [rising, single point]"
CCOC(=O)/C(C#N)=C\c1cccnc1,-19.1,"0.092 µM [rising, partial curve, poor fit]","6.51 µM [rising, single point]"
CC1CCCC(C)N1C(=O)c1cc(-c2ccc(Cl)c(Cl)c2)on1 (configuration not stated),5.66,–,"20.6 µM [rising, single point]"
Nc1ncnc2nc(SCC(=O)N3CCN(c4ccccc4)CC3)[nH]c12,35.4,"1.64 µM [rising, partial curve, poor fit]","0.92 µM [rising, single point]"
COc1cccc(CN(C)C(=O)CNC(=O)c2ccc(-c3ccccc3)cc2)c1OC,-23,–,"6.51 µM [rising, single point]"
O=C(NCCCN1CCCC1=O)c1ccc(NS(=O)(=O)c2ccc(F)cc2)cc1,-9.09,–,"0.116 µM [falling, full curve, poor fit]"
COc1ccccc1OCCCCOc1ccccc1C(C)=O,3.87,–,"5.8 µM [falling, partial curve]"
O=C(CCNC(=O)c1ccccc1)N=Nc1c(O)[nH]c2ccccc12,17.2,"0.517 µM [rising, full curve, poor fit]","29.1 µM [rising, single point]"
COc1ccc(CNC(=O)C2CCC(CNS(=O)(=O)c3cccs3)CC2)cc1 (configuration not stated),-10.3,–,–
O=C(c1ccc2c(c1)OCO2)N1CCN(c2ccccc2)CC1,-3.33,–,"8.2 µM [rising, partial curve]"

SMILES,cell number change [%],AC50 [1],AC50 [2]
CCOC(=O)C1C(=O)CC(C)(O)C(C(=O)OCC)C1c1ccc(OC)cc1 (configuration not stated),-2.37,"1.46 µM [falling, partial curve, poor fit]","0.651 µM [falling, full curve, poor fit]"
CSCCC(NC(=O)c1c(C)oc2c1CCCC2)C(=O)O (configuration not stated),-3.14,–,"5.17 µM [falling, partial curve, poor fit]"
O=C(O)c1cc2cc(F)ccc2[nH]1,20,–,"6.51 µM [falling, single point]"
Cc1ccccc1-n1c(SCC(=O)N2CCN(c3ccccn3)CC2)nnc1N1CCOCC1,-7.73,–,–
CC1CCCC(C)N1C(=O)c1ccc2c(c1)S(=O)(=O)c1ccccc1C2=O (configuration not stated),6.45,–,–
CCOC(=O)c1cccc(NC(=O)c2cncc(Br)c2)c1,32.3,"0.461 µM [rising, partial curve, poor fit]","6.51 µM [rising, single point]"
COc1ccccc1NC(=O)CCC(=O)O,–,"5.17 µM [falling, single point]",–
O=C(COC(=O)CCCOc1ccc(Cl)cc1Cl)NCc1ccc(F)cc1,9.77,–,"20.6 µM [rising, single point]"
Oc1c(N=NC(=S)Nc2ccccc2F)c2ccccc2n1Cc1ccccc1,-25.9,–,"0.00461 µM [falling, full curve, poor fit]"
CC(=O)Nc1ccc(S(=O)(=O)NC2CC3CCC2C3)cc1 (configuration not stated),16.8,–,"29.1 µM [rising, single point]"
COCCCNC(=S)NC(=O)c1ccc([N+](=O)[O-])cc1,-16.7,"0.00411 µM [falling, full curve, poor fit]","0.461 µM [rising, full curve, poor fit]"
COc1cc(NC(=O)C2CCN(S(=O)(=O)c3cnc[nH]3)CC2)cc(OC)c1OC,-57.6,"16.4 µM [falling, single point]",–
O=c1cc(CSc2ccc(Cl)cc2)nc(-c2ccccc2)[nH]1,67.7,"6.51 µM [falling, single point]",–
O=C(Cn1c(=O)n(Cc2ccc(F)cc2)c(=O)c2ccccc21)NCC1CCCO1 (configuration not stated),20.4,–,"0.58 µM [falling, single point]"
O=C1CCc2cc(S(=O)(=O)N3CCC(C(=O)NC4CCCC4)CC3)ccc2N1,-21.8,"0.146 µM [falling, full curve, poor fit]","2.06 µM [falling, full curve]"
CCCCN(CC)C(=O)Cc1ccccc1OC,85.3,"29.1 µM [rising, single point]",–
COc1cc(NC(=O)C(C)C)ccc1NC(=O)c1cc2ccccc2o1,-12.9,–,"16.4 µM [falling, single point]"
CCCC(O)(CCN1CCCCC1)c1ccc(OCC)cc1 (configuration not stated),–,–,"0.0058 µM [falling, full curve]"
Cc1ccc(C)c(NC(=O)CN(C)C(=O)c2cc3c(s2)CCCCC3)c1,–,"0.164 µM [rising, partial curve, poor fit]","0.461 µM [rising, partial curve]"

# 18 compounds already listed, sorted by molar mass, high to low.
SMILES,cell number change [%],AC50 [1],AC50 [2]
Cc1ccccc1-n1c(SCC(=O)N2CCN(c3ccccn3)CC2)nnc1N1CCOCC1,-7.73,–,–
COc1cc(NC(=O)C2CCN(S(=O)(=O)c3cnc[nH]3)CC2)cc(OC)c1OC,-57.6,"16.4 µM [falling, single point]",–
O=C(COC(=O)CCCOc1ccc(Cl)cc1Cl)NCc1ccc(F)cc1,9.77,–,"20.6 µM [rising, single point]"
O=C(Cn1c(=O)n(Cc2ccc(F)cc2)c(=O)c2ccccc21)NCC1CCCO1 (configuration not stated),20.4,–,"0.58 µM [falling, single point]"
O=C1CCc2cc(S(=O)(=O)N3CCC(C(=O)NC4CCCC4)CC3)ccc2N1,-21.8,"0.146 µM [falling, full curve, poor fit]","2.06 µM [falling, full curve]"
Oc1c(N=NC(=S)Nc2ccccc2F)c2ccccc2n1Cc1ccccc1,-25.9,–,"0.00461 µM [falling, full curve, poor fit]"
CC1CCCC(C)N1C(=O)c1ccc2c(c1)S(=O)(=O)c1ccccc1C2=O (configuration not stated),6.45,–,–
Cc1ccc(C)c(NC(=O)CN(C)C(=O)c2cc3c(s2)CCCCC3)c1,–,"0.164 µM [rising, partial curve, poor fit]","0.461 µM [rising, partial curve]"
COc1cc(NC(=O)C(C)C)ccc1NC(=O)c1cc2ccccc2o1,-12.9,–,"16.4 µM [falling, single point]"
CCOC(=O)c1cccc(NC(=O)c2cncc(Br)c2)c1,32.3,"0.461 µM [rising, partial curve, poor fit]","6.51 µM [rising, single point]"
O=c1cc(CSc2ccc(Cl)cc2)nc(-c2ccccc2)[nH]1,67.7,"6.51 µM [falling, single point]",–
CSCCC(NC(=O)c1c(C)oc2c1CCCC2)C(=O)O (configuration not stated),-3.14,–,"5.17 µM [falling, partial curve, poor fit]"
O=C(c1ccc2c(c1)OCO2)N1CCN(c2ccccc2)CC1,-3.33,–,"8.2 µM [rising, partial curve]"
CCCC(O)(CCN1CCCCC1)c1ccc(OCC)cc1 (configuration not stated),–,–,"0.0058 µM [falling, full curve]"
COCCCNC(=S)NC(=O)c1ccc([N+](=O)[O-])cc1,-16.7,"0.00411 µM [falling, full curve, poor fit]","0.461 µM [rising, full curve, poor fit]"
CCCCN(CC)C(=O)Cc1ccccc1OC,85.3,"29.1 µM [rising, single point]",–
COc1ccccc1NC(=O)CCC(=O)O,–,"5.17 µM [falling, single point]",–
O=C(O)c1cc2cc(F)ccc2[nH]1,20,–,"6.51 µM [falling, single point]"

# — PubChem BioAssay AID2685 (National Center for Advancing Translational Sciences (NCATS), 2010)
